# In PubChem BioAssay AID1347076 (National Center for Advancing Translational Sciences (NCATS), 2019):
# About 13,000 (3.2%) of roughly 400,000 compounds were called active. This list was built around the results that the source calls inconclusive (neither active nor inactive); the mix of calls is not that of the screen. The call rests on the fitted dose curve; in most records, active means well fitted cell-killing curve with a large enough effect; inconclusive means small, poorly fitted or top-dose-only effect, or effect the other way; inactive means flat fitted curve, though single readings scatter. A potency beside an inconclusive call is a rough fit, not a confirmed value.
# Assay: qHTS assay for MDR1-selective chemotherapeutics: Primary screen using the drug-selected MDR subline cells KB-V1; further: nearly all actives have a fitted effect of over 60% in size
# Details: KB-V1 MDR cells viability, CellTiter-Glo, 72 h; activity change, negative = cytotoxicity: at 46.1 µM (top of the series)
# Method in brief: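 Potencies derive from concentration-effect curves fitted to normalized luminescence (CellTiter-Glo) of KB-V1 cells treated for 72 h at 37 degrees C in phenol-red-free DMEM containing 10% FBS.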
# On the % scale 0 is the no-effect control and ±100 the full control effect; potency means the concentration at half of the fitted maximal effect.
SMILES,Potency,"activity change, negative = cytotoxicity"
CC1CCCC(C)N1C(=C(Cl)Cl)C(=C1SCCS1)[N+](=O)[O-] (stereo not drawn),"inconclusive: 20.6 µM [cytotoxic, single point]",
COc1ccccc1P(=O)(Cc1ccccc1[N+](=O)[O-])c1ccccc1 (stereo not drawn),"inconclusive: 23.1 µM [cytotoxic, single point]",
CC1CCN(c2ccc(-c3cccc(NC(=O)C(F)(F)F)c3)nn2)CC1,"inconclusive: 29.1 µM [cytotoxic, single point]",
COc1cc(NC(=O)CNC(=O)Cn2c(C)cc3ccccc3c2=O)cc(OC)c1OC,,inactive: 3.91%
COc1ccccc1NC(=S)N1CCC(NC(=O)C23CC4CC(CC(C4)C2)C3)CC1,"inconclusive: 0.0231 µM [cytotoxic, full curve]",
CCn1cnc2cc(NC(=O)c3cccs3)ccc21,,inconclusive: -6.53%
CC(C)=CCc1c2c(c3occ(-c4ccc(O)cc4)c(=O)c3c1O)C=CC(C)(C)O2,"inconclusive: 29.1 µM [cytotoxic, single point]",
Nc1nn(S(=O)(=O)c2ccccc2)cc1-c1cccc([N+](=O)[O-])c1,"inconclusive: 9.2 µM [cytotoxic, partial curve, poor fit]",
COc1ccc2c(c1)CC(C)C/C2=N\NC(=O)c1ccco1 (stereo not drawn),"inconclusive: 13 µM [cytotoxic, partial curve, poor fit]",
COc1cc(C(=O)Nc2nnc(CC(=O)NCc3ccccc3)s2)cc(OC)c1OC,"inconclusive: 29.1 µM [rising, single point]",
COc1cc(/C=N/Nc2nc3ccccc3s2)ccc1OC(=O)c1ccccc1F,"inconclusive: 20.6 µM [cytotoxic, partial curve, poor fit]",
Cc1ccc(NC(=O)Cn2cc3c(n2)CCCC3)c(Cl)c1,,inactive: 16%
Cc1ccc(NC(=O)Nc2cnccn2)cc1C,"inconclusive: 16.4 µM [cytotoxic, single point]",
COC(=O)[C@@]12C[C@@H](CC(=O)NCC3CCCCC3)C(=O)N(Cc3cccc4ccccc34)C1=CCC(C)(C)C2,active: 20.6 µM,
Cc1ccc(-c2cc(C(=O)N3CCCCC3)c3ccccc3n2)cc1C,,inactive: 2.32%
CCC(C)NS(=O)(=O)c1ccc(S(=O)(=O)N2CC=C(c3ccc(F)cc3)CC2)cc1 (stereo not drawn),"inconclusive: 23.1 µM [cytotoxic, partial curve, poor fit]",
O=C(Nc1ccc(N2CCOCC2)cc1)Nc1ccc2nc(-c3ccco3)c(-c3ccco3)nc2c1,"inconclusive: 29.1 µM [cytotoxic, single point]",
C=CCNC(=O)COC(=O)c1cccnc1Nc1ccccc1F,,inactive: -20.2%

# 2 successive compounds from above, for reference:
SMILES,Potency,"activity change, negative = cytotoxicity"
Cc1ccc(NC(=O)Cn2cc3c(n2)CCCC3)c(Cl)c1,,inactive: 16%
Cc1ccc(NC(=O)Nc2cnccn2)cc1C,"inconclusive: 16.4 µM [cytotoxic, single point]",
